PubChem BioAssay AID602196 | INSERM, 2012

Purpose: 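Modifiers of cisplatin sensitivity in A549 cells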
Cell system: human A549 lung cancer cells
Reagents: siRNA pair against human genes
Duration: 48 h transfection before cisplatin; time from cisplatin to read-out not stated
Treatment: cisplatin at a dose killing half of control-siRNA cells; exact dose and duration not given
Measured: 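Shift in cisplatin death relative to control siRNA, from -50 (all cells die) to +50 (no cells die); siRNAs harmful on their own scored 0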
Direction: two-siRNA summed score (-2 to +2): higher = both siRNAs protect from cisplatin killing; -2 means both sensitise; mean protection from cisplatin (shift in death): higher = protection from cisplatin killing
Call rule: 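Each siRNA scores 0 if harmful alone by LDH or WST-1, otherwise +1 if it reduces and -1 if it increases cisplatin killing; a gene is active when both siRNAs agree (sum +2 or -2)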
Meaning of the calls: active = both siRNAs shift cisplatin killing the same way; inactive = no consistent shift, or siRNA harmful alone
Here is one part, drawn at random, of about 23,000 reagents tested. Of all reagents, 455 (2%) were called active. 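Active includes both protection and sensitisation; some change values fall well beyond the stated -50 to +50 range.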 The numbers tell different reagents against one gene apart. Further read-outs or replicates are left out here. The record does not give: the amount of reagent.

target gene	reagent no.	two-siRNA summed score (-2 to +2)	mean protection from cisplatin (shift in death) (%)	Outcome
MOG	1	0	13.4	inactive
SMIM29	1	1	9.8	inactive
PTPRB	1	1	12.6	inactive
PIGK	1	0	1.4	inactive
LOC441463	1	0	6.5	inactive
TRAF1	1	-1	-2	inactive
LRRTM2	1	0	2	inactive
CIT	1	1	8.3	inactive
D-2L	1	0	13.8	inactive
FRMD3	1	0	-1.2	inactive
LOC343702	1	0	0.4	inactive
LOC389638	1	0	-0.8	inactive
CPEB2	1	0	12.3	inactive
LOC441043	1	0	13.1	inactive
SMIM7	1	0	20.5	inactive
FLJ45651	1	0	-1.5	inactive
LRIG3	1	0	4.2	inactive
BCLAF1	1	1	5.7	inactive
CLEC2D	1	0	10.8	inactive
LOC441927	1	-1	-7	inactive
LOC441442	1	0	17.9	inactive
TSR2	1	0	7.9	inactive
MYBL1	1	0	0.4	inactive
HOXA13	1	0	9.4	inactive
PRSS48	1	0	6.6	inactive
ZNF117	1	0	5.8	inactive
ZNF117	2	1	11.2	inactive
LARGE2	1	0	0.6	inactive
TRPM4	1	0	0.7	inactive
NXNL2	1	0	-2	inactive
TLCD1	1	0	9.8	inactive
FCRL6	1	0	5.6	inactive
MCM6	1	1	9	inactive
TUBG1	1	-1	-4.1	inactive
MEPE	1	0	8.9	inactive
LOC400224	1	0	4.6	inactive
MSANTD4	1	0	2.5	inactive
UBQLNL	1	-1	-0.7	inactive
LRRFIP2	1	0	9.6	inactive
LOC440029	1	1	25.2	inactive
LANCL1	1	0	-2	inactive
RING1	1	0	11.4	inactive
VN1R5	1	0	-2.5	inactive
TAS1R3	1	0	16.2	inactive
LOC440246	1	1	10.4	inactive
NANP	1	0	7.8	inactive

Only “two-siRNA summed score (-2 to +2)” (9 entries from above):
PTPRB	1
PIGK	0
LOC441463	0
TRAF1	-1
LRRTM2	0
CIT	1
D-2L	0
FRMD3	0
LOC343702	0

Next results follow.
target gene	reagent no.	two-siRNA summed score (-2 to +2)	mean protection from cisplatin (shift in death) (%)	Outcome
LOC388177	1	1	10.1	inactive
GALM	1	0	5.2	inactive
ZFP82	1	0	0.3	inactive
CYP4Z1	1	0	2.1	inactive
DKK3	1	0	-5.3	inactive
GALNT3	1	0	2.8	inactive
FLJ40411	1	0	7.6	inactive
UBE2I	1	0	16.7	inactive
ADGRD2	1	0	12.2	inactive
AP2A1	1	0	24.4	inactive
PPIH	1	0	4.6	inactive
VDAC2	1	0	-13	inactive
P4HB	1	0	-0.9	inactive
ACAP3	1	0	3.9	inactive
MARS1	1	-1	-5.3	inactive
LOC441335	1	1	8.1	inactive
TEAD1	1	0	6.7	inactive
ART3	1	0	10.5	inactive
LOC440520	1	0	4.6	inactive
LOC440448	1	0	17.5	inactive
CILK1	1	0	7.3	inactive
LCN10	1	1	16.9	inactive
LOC442423	1	0	8.2	inactive
GPN3	1	0	3.9	inactive
CEBPA	1	0	14.8	inactive
CSN1S1	1	0	-10.7	inactive
FGR	1	0	1.2	inactive
